Laboratory results reported in patent US20090092600A1 (Dana-Farber, published 2009).
These are yes or no findings as the source states them, for the method shown. In cells and extracts the contact can be indirect. Some binding calls cover weakened binding; strength is not graded here.

By UniProt entry, the sequences of proteins in these tests, tags left out. Where a name states a change or a piece, a line headed by the entry shows the natural chain unless it says otherwise.
UniProt P40763: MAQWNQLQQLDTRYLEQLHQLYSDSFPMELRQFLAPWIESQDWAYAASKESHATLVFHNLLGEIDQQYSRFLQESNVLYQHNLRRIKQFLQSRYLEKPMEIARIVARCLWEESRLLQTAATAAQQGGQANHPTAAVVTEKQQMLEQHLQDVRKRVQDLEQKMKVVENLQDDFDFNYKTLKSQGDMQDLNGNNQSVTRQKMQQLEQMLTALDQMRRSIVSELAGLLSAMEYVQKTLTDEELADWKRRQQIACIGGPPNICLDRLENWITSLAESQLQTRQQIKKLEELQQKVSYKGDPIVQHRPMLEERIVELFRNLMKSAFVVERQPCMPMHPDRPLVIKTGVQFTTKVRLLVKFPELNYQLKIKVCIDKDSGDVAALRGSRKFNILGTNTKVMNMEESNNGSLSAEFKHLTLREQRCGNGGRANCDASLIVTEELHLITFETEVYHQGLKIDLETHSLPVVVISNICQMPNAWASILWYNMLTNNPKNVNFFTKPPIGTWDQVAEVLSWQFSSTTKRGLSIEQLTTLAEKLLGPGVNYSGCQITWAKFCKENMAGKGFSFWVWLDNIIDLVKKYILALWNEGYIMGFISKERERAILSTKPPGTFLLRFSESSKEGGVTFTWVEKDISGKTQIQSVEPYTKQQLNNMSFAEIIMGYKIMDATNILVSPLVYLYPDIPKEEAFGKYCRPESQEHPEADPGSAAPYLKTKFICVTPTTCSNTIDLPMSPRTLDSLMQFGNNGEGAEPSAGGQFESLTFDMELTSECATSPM

Biological target: GST-STAT3 (human) (UniProt P40763)
Assay: GST pull-down on glutathione beads, immunoblot with anti-His or anti-MUC1-C

binding: binds
B1: His-tagged MUC1-CD (MUC1 cytoplasmic domain) (other)
chain: CQCRRKNYGQLDIFPARDTYHPMSEYPTYHTHGRYVPPSSTDRSPYEKVSAGNGGSSLSYTNPAVAAASANL
notes: Purified recombinant protein; also called His-MUC1; not shown: His tag
